# Paper PMC9137774, “The ArsH Protein Product of the Paracoccus denitrificans ars Operon Has an Activity of Organoarsenic Reductase and Is Regulated by a Redox-Responsive Repressor” (Antioxidants, 2022)
# Assays:
# [1] = biological target: T1, ArsR1 (Paracoccus denitrificans) (UniProt A1B6S3); assay: EMSA; conditions: EMSA: 10 mM Tris-HCl, 50 mM NaCl, 0.5 mM EDTA, pH 8.0, room temperature, 10 µM DNA and 10 µM ArsR, recombinant protein, residues 1-119, protein details: N-terminal His6 (pET100/D-TOPO), label: 5'-FAM on strand 1
# T1 sequence (looked up): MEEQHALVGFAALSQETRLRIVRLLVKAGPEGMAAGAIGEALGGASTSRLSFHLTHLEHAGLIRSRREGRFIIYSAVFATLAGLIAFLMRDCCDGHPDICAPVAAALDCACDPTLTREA
# [2] = biological target: T2, ArsR2 (Paracoccus denitrificans) (UniProt A1B7C2); assay: EMSA; conditions: EMSA: 10 mM Tris-HCl, 50 mM NaCl, 0.5 mM EDTA, pH 8.0, room temperature, 10 µM DNA and 10 µM ArsR, recombinant protein, residues 1-120, protein details: N-terminal His6 (pET100/D-TOPO), label: 5'-FAM on strand 1
# T2 sequence (looked up): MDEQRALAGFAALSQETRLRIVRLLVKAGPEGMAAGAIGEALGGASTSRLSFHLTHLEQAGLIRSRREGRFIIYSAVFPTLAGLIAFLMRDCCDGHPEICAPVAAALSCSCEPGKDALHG
# [3] = sodium arsenite (0.1 mM in Results, 1 mM in Methods)
Sequence,binding result ([1]; 1 mM diamide),binding result [1],"binding result [1, 3]",binding result ([2]; 1 mM diamide),binding result [2],"binding result [2, 3]"
ATCAACATATCTTGAGAGGTTGATTCG (double strand) [PDNA2],no binding,binds,no binding,no binding,binds,no binding
CTCAACATATCTTGAGAGGTTGATTCG (double strand) [PDNA1],no binding,binds,no binding,no binding,binds,no binding

# Negatives hold for the conditions tested. At least one verdict rests on a figure or table, not on a statement of the authors. Tags and fusion partners may be left off the protein sequences shown. For at least one entry, the source does not settle the construct or the ends of the probe.
